According to PubChem BioAssay AID504834 (National Center for Advancing Translational Sciences (NCATS), 2011):
Values joined by “and” are separate entries in the source; they are usually repeats but may differ in a detail not shown here. Equal values may be shown once. Hit rate of the full screen: of about 320,000 compounds, about 22,000 (6.9%) were called active. The inconclusive results got no clear call from the source; some entries with a clear call stand among them for comparison. Calls come from the whole dose curve; as a rule, active = well fitted inhibition curve with a large enough effect; inconclusive = small, poorly fitted or top-dose-only effect, or another doubt; inactive = no such curve, though single readings can be large or run the other way. A potency beside an inconclusive call is a rough fit, not a confirmed value.

Assay: Primary qHTS for delayed death inhibitors of the malarial parasite plastid, 96 hour incubation
Details: P. falciparum luciferase reporter growth; series mostly up to 28.7 µM
Method in brief: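 Plates of compound plus infected erythrocytes (2% hematocrit, 0.05% parasitemia final) incubate 96 hours, 37 C, 5% CO2. Detection reagent added; reduced luminescence from the parasites' luciferase reporter flags inhibition.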
Potency is the fitted concentration of half-maximal effect.

Structure (SMILES) | Potency
CCn1c(CCNC(=O)c2cccs2)n[nH]c1=S | inconclusive: 18.5 µM [inhibitor, single point]
COc1ccc(C(=O)Nc2nnc(S(=O)(=O)N(C)Cc3ccccc3)s2)cc1 | inconclusive: 18.5 µM [inhibitor, single point]
COc1ccc(OC)c(C(C)NC(=S)NC2CCCCC2)c1 (stereo not drawn) | inconclusive: 13.1 µM [inhibitor, single point]
COc1ccc(/C=C(/NC(=O)c2cccs2)C(=O)NC(C)(C)C)cc1OC | active: 9.28 µM
CCCc1nc2oc3ccccc3c(=O)c2c(=O)n1CCCOC | inconclusive: 0.0928 µM [inhibitor, full curve, poor fit]
COc1cccc(NC(=O)c2cc(Cl)nnc2Cl)c1 | inconclusive: 7.38 µM [inhibitor, single point]
O=C(c1ccco1)N1CCN(C(=O)c2ccccc2Oc2ccccc2)CC1 | inconclusive: 7.38 µM [inhibitor, partial curve, poor fit]
Cc1nnc(SCc2nc3ccccc3c(=O)n2-c2ccccc2Cl)n1N | inactive
Cc1ccc(NC(=O)CSc2nc3ccc(Nc4nc(N5CCOCC5)nc(N5CCOCC5)n4)cc3s2)cc1 | inconclusive: 9.28 µM [inhibitor, partial curve, poor fit]
O=C(CN1CCN(c2ccccc2F)CC1)N1CCc2ccccc21 | inactive
COc1ccc(-n2ccnc2CN2CCCC(CO)(Cc3cccc(OC)c3)C2)cc1 (stereo not drawn) | inconclusive: 18.5 µM [inhibitor, partial curve, poor fit]
CCOC(=O)C1CCCN(C(=O)CCNS(=O)(=O)c2ccc3c(c2)CCC(=O)N3)C1 (stereo not drawn) | inconclusive: 18.5 µM [inhibitor, single point]
O=C(N/N=C/C=C/c1ccc([N+](=O)[O-])cc1)C1COc2ccccc2O1 (stereo not drawn) | active: 11.7 µM
COCCNC(=O)c1cc2c(=O)n3cccc(C)c3nc2n(Cc2ccncc2)c1=N | inconclusive: 18.5 µM [inhibitor, single point]
Cc1cc2oc(=O)cc(CN3CCCCC3C)c2cc1C(C)C (stereo not drawn) | inconclusive: 9.28 µM [inhibitor, partial curve]
COc1ccc(-n2c(SCC(=O)NCCC(C)C)nc3ccsc3c2=O)cc1 | inconclusive: 4.15 µM [inhibitor, partial curve, poor fit]
COCCC1CCCCN1C(=O)c1ccc(OC2CCN(C(C)=O)CC2)c(OC)c1 (stereo not drawn) | inconclusive: 10.4 µM [inhibitor, partial curve, poor fit]
N#Cc1cccc(NC(=O)CNc2cccc(S(=O)(=O)N3CCCCC3)c2)c1 | inconclusive: 5.22 µM [inhibitor, partial curve]
Cc1ccc(N/N=C/c2c(C)c(C#N)c(=O)n(C)c2O)cc1C | inactive
CCOc1cc(C(=O)Nc2nnc(S(=O)(=O)N3CCOCC3)s2)cc(OCC)c1OCC | inconclusive: 0.0828 µM [inhibitor, full curve, poor fit]
Cc1ccc(C)c2[nH]c(=O)c(CN(CCCN(C)C)C(=O)NCc3ccccc3)cc12 | inconclusive: 16.5 µM [inhibitor, single point]
COc1ccc(F)cc1CN1CCN(C(=O)CCC(=O)Nc2nnc(C3CCCCC3)s2)CC1 | inconclusive: 8.28 µM [inhibitor, partial curve, poor fit]
Clc1ccc2c(c1)CCc1cccnc1C2=C1CCNCC1 | inconclusive: 18.5 µM [inhibitor, single point] and inconclusive: 16.9 µM [inhibitor, single point]

Structure (SMILES) | Potency
COc1ccc(CNCCC(c2ccccc2)C2CCOC(C)(C)C2)cc1 (stereo not drawn) | inconclusive: 10.4 µM [inhibitor, partial curve]
CC1CC(=O)Nc2ccccc2N1S(=O)(=O)c1ccc(C(F)(F)F)cc1 (stereo not drawn) | inconclusive: 3.29 µM [inhibitor, single point]
NC(=O)Nc1ccc(Cl)cc1 | inactive
CC(C)(C)c1ccc(OCC(=O)N(c2ccccn2)C2CCCCC2)cc1 | inconclusive: 18.5 µM [inhibitor, single point]
O=C(Nc1nc2ccccc2s1)c1ccc(OCC2CCCO2)cc1 (stereo not drawn) | inactive
Nc1ncnc(Nc2ccccn2)c1[N+](=O)[O-] | inactive
O=C(CNC(=O)c1cccc(F)c1)OCC(=O)N1CCCc2ccccc21 | inactive
O=C(C1CCCCC1)N1CCN(c2ccnc3cc(Cl)ccc23)CC1 | active: 3.29 µM
NS(=O)(=O)c1ccc(CCNC(=O)CSc2ccc(Cl)cc2Cl)cc1 | inconclusive: 6.57 µM [inhibitor, partial curve]
Cc1ccc(C(=O)Nc2ncc(C)s2)s1 | inactive
COCCn1c(SCC(=O)NC(=O)NCc2ccccc2)nc2ccccc2c1=O | inconclusive: 18.5 µM [inhibitor, single point]
Cc1cc(NC(=O)C2CCN(S(=O)(=O)c3cccs3)CC2)no1 | inconclusive: 10.4 µM [inhibitor, single point]
CN(CC(=O)Nc1ccccc1Cl)C(=O)Cn1cnc2ccccc2c1=O | inactive
O=C(c1cc(COc2ccc(F)c(F)c2)on1)N1CCN(C/C=C/c2ccccc2)CC1 | inactive
CC(=O)Oc1ccccc1N(C(C)=O)S(=O)(=O)c1ccc(C)cc1 | inconclusive: 18.5 µM [inhibitor, single point]
COc1ccc(CNC(=O)C(C)N2CCN(S(=O)(=O)c3ccccc3F)CC2)cc1 (stereo not drawn) | inconclusive: 13.1 µM [inhibitor, single point]
CSCC[C@H](NC(=O)c1cc([N+](=O)[O-])ccc1Cl)c1nc2ccccc2[nH]1 | active: 14.7 µM
O=S(=O)(NCC(c1cccnc1)N1CCN(Cc2ccccc2)CC1)c1ccccc1 (stereo not drawn) | inconclusive: 7.38 µM [inhibitor, partial curve, poor fit]
COC(=O)c1ccc(N/C(C)=C/C(=O)c2ccc(C)o2)cc1 | inconclusive: 7.38 µM [inhibitor, single point]
Cc1cc(C)nc(SCc2ccc([N+](=O)[O-])cc2)n1 | inactive
COc1cccc(NC(=O)CN(C)C(=O)c2ccc(Cl)c(S(=O)(=O)N3CCCCCC3)c2)c1 | inconclusive: 10.4 µM [inhibitor, single point]
CSc1ncc(Cl)c(C(=O)C(C#N)c2nc3c(C)cc(C)cc3c(=O)[nH]2)n1 (stereo not drawn) | inconclusive: 16.5 µM [inhibitor, single point]
COc1ccc(C(C)(C)C)cc1NC(=O)CCCN1C(=O)NC(C)(C)C1=O | inactive

Reprinted at random: three entries already listed.
Structure (SMILES) | Potency
NS(=O)(=O)c1ccc(CCNC(=O)CSc2ccc(Cl)cc2Cl)cc1 | inconclusive: 6.57 µM [inhibitor, partial curve]
O=C(N/N=C/C=C/c1ccc([N+](=O)[O-])cc1)C1COc2ccccc2O1 (stereo not drawn) | active: 11.7 µM
COc1ccc(OC)c(C(C)NC(=S)NC2CCCCC2)c1 (stereo not drawn) | inconclusive: 13.1 µM [inhibitor, single point]

Remaining list, next part.

Structure (SMILES) | Potency
CC(C)Cc1nnc(NS(=O)(=O)c2ccc([N+](=O)[O-])cc2)s1 | inconclusive: 8.28 µM [inhibitor, partial curve]
CCCSc1ncc(Cl)c(C(=O)Nc2ccc(S(=O)(=O)N3CC(C)OC(C)C3)cc2)n1 (stereo not drawn) | inconclusive: 11.7 µM [inhibitor, single point]
CSc1ccccc1NC(=O)COC(=O)c1ccccc1Cc1ccccc1 | inconclusive: 11.7 µM [inhibitor, partial curve, poor fit]
CC(C)OC(=O)c1nnc(Cc2ccc(Cl)cc2)o1 | inconclusive: 7.38 µM [inhibitor, partial curve, poor fit]
Cc1ccn2c(CNCC3COCCO3)c(C(=O)N3CCCCCC3)nc2c1 (stereo not drawn) | inactive
CC(NC(=O)c1cccc(S(=O)(=O)N2CCN(C)CC2)c1)c1ccc(Cl)cc1Cl (stereo not drawn) | inactive
CCN(CC)c1ccc(N=C2C(=O)Nc3ccccc32)cc1 | inconclusive: 10.4 µM [inhibitor, partial curve, poor fit]
O=c1[nH]c2ccccc2cc1-c1noc(-c2cccnc2)n1 | inactive
CCOc1ccccc1C(=O)NCC(=O)N(C)Cc1ccccc1C | active: 13.1 µM
O=C1CC(N2CCN(c3ccccc3Cl)CC2)C(=O)N1c1cccc(F)c1 (stereo not drawn) | inconclusive: 18.5 µM [inhibitor, single point]
O=C(COc1ccccc1Cl)Nc1cccc(S(=O)(=O)NC2=NCCCCC2)c1 | inconclusive: 13.1 µM [inhibitor, partial curve]
CN(C(=O)c1ccncc1)c1nnc(-c2ccccn2)s1 | inactive
N#C/C(=N\Nc1cc(Cl)cc(Cl)c1)c1nnc2n1CCCCC2 | inconclusive: 18.5 µM [inhibitor, single point]
Cc1ccc(Nc2nc(N)nc(CSc3nc(C)cc(C)n3)n2)cc1 | inconclusive: 5.86 µM [inhibitor, partial curve]
CC1CCC(C(=O)NC(C(=O)NCc2ccccn2)C(C)C)CC1 (stereo not drawn) | inconclusive: 0.37 µM [inhibitor, full curve, poor fit]
Cc1cc(Br)ccc1N=C1NC(=O)CS1 | inactive
C/C(=N\NC(=O)c1ccccc1O)c1c(O)n(Cc2ccccc2)c(=O)[nH]c1=O | inactive
COc1cccc(-n2c(CN3CCN(c4ccccc4)CC3)nc3ccc([N+](=O)[O-])cc3c2=O)c1 | inconclusive: 4.15 µM [inhibitor, partial curve, poor fit]
Cc1ccccc1CSCC(=O)NCCSc1ccccn1 | inactive
Cn1cc(Br)c(C(=O)NNC(=O)c2ccc(Br)cc2)n1 | inconclusive: 18.5 µM [inhibitor, single point]
COc1ccc(S(=O)(=O)N2CCCC(C(=O)NCc3ccccn3)C2)cc1 (stereo not drawn) | inconclusive: 6.57 µM [inhibitor, partial curve]
C=CCn1c(CCn2c3ccccc3c3ccccc32)n[nH]c1=S | inconclusive: 18.5 µM [inhibitor, single point]
